# Results reported in patent US7288554B2, “Ortho-substituted aryl amides for controlling invertebrate pests” (E.I. du Pont de Nemours and Company, priority 2001, dated 2007).
# Some of these results come from one statement about several compounds together.
# How the values were obtained:
# Assay type in all cases: in vivo
# [1] = tested on: diamondback moth (Plutella xylostella); experiment: Test A: control of diamondback moth on radish plant, spray, visual feeding damage; conditions: neonate larvae, assessed after 6 days
# [2] = tested on: fall armyworm (Spodoptera fugiperda); experiment: Test B: control of fall armyworm on corn (maize) plant, spray, visual feeding damage; conditions: sprayed at 50 ppm, 1-day-old larvae, assessed after 6 days
# [3] = tested on: tobacco budworm (Heliothis virescens); experiment: Test C: control of tobacco budworm on cotton plant, spray, visual feeding damage; conditions: sprayed at 50 ppm, 2-day-old larvae, assessed after 6 days
Compound,excellent levels of plant protection (feeding damage) ([1]; sprayed at 50 ppm) [%],excellent levels of plant protection (feeding damage) [2] [%],excellent levels of plant protection (feeding damage) [3] [%],excellent levels of plant protection (feeding damage) ([1]; sprayed at 10 ppm) [%]
"Cc1cccc(S(=O)(=O)NC(C)C)c1NC(=O)c1cc(C(F)(F)F)nn1-c1ncccc1Cl [Compound B3, 1-(3-Chloro-2-pyridinyl)-N-[2-methyl-6-[[(1-methylethyl)amino]sulfonyl]phenyl]-3-(trifluoromethyl)-1H-pyrazole-5-carboxamide]",≤ 20,–,–,–
"Cc1cccc(C(=O)CC(C)C)c1NC(=O)c1cc(Br)nn1-c1ncccc1Cl [Compound C2, 3-Bromo-1-(3-chloro-2-pyridinyl)-N-[2-methyl-6-(3-methyl-1-oxobutyl)phenyl]-1H-pyrazole-5-carboxamide]",–,≤ 20,≤ 20,≤ 20
